Substitutions are numbered along the chain they refer to. No constants are given. Whether binding was seen depends on the method and setting. Binding seen in cells or lysates may run through a third protein. Some entries that bind do so weakly or less than the wild type.
What was measured:
Assay in all cases: cross-linking
[1] = molecular target: T1, FepA E35C (Escherichia coli K-12) (UniProt P05825)
T1 sequence: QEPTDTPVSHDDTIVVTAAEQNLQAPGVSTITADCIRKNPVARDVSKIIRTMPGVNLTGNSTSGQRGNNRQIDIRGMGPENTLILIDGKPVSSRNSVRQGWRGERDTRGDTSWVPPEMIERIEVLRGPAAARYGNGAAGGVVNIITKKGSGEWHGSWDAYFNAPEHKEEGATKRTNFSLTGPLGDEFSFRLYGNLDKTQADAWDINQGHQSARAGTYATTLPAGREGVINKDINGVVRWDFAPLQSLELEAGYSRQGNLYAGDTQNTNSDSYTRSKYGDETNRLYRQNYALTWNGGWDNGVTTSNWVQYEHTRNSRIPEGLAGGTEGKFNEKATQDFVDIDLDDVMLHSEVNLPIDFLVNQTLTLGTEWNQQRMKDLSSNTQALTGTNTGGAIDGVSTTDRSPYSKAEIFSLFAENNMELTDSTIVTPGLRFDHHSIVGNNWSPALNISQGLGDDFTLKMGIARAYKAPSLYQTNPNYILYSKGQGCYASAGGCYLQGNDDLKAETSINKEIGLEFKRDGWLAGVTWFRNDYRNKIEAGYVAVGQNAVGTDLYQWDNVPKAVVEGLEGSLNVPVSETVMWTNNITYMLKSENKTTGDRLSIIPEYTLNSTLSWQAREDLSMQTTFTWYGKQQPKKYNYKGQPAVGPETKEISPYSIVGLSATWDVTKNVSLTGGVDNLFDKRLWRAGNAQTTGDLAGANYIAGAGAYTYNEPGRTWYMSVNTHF

Amino acid sequences for entries named in this document (tags omitted). A change or cut given only in a name is not applied to a line headed by its entry.
UniProt P02929, whole entry, looked up, stated change not applied: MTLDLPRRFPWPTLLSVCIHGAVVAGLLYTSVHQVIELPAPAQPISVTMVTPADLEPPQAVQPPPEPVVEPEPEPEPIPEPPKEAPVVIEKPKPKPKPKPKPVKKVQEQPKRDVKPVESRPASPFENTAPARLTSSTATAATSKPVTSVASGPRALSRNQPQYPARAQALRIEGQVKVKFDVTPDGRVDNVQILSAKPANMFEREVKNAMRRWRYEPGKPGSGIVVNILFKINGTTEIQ

[2] = molecular target: T2, FepA D519C (Escherichia coli K-12) (UniProt P05825)
T2 sequence: T1 sequence with C35E, D519C

[3] = molecular target: T3, FepA A33C (Escherichia coli K-12) (UniProt P05825)
T3 sequence: T1 sequence with A33C, C35E

Substance	binding [1]	binding [2]	binding [3]
TonB C18G A209C (from UniProt P02929 1-239)	no binding	no binding	no binding
TonB C18G R204C (from UniProt P02929 1-239)	no binding	–	binds
TonB C18G R212C (from UniProt P02929 1-239)	–	binds	–
TonB C18G N208C (from UniProt P02929 1-239)	–	binds weakly	–
TonB C18G Q160C (from UniProt P02929 1-239)	binds	binds weakly	binds
TonB C18G V206C (from UniProt P02929 1-239)	no binding	no binding	no binding

From publication doi:10.1101/2021.12.08.471779
